Measurements from PubChem BioAssay AID602346 (Broad Institute, 2012).
In all, about 340,000 compounds went through this assay and about 1,200 (0.35%) were called active. Inconclusive results, whose numbers are uncertain, are shown with a selection of clear calls. Rule as the data show it: active = inhibition above about 50% (passing the limit was not always enough); inconclusive = no clear call, values can overlap the other calls; inactive = below about 31%.

assay: blockers of Vif multimerization in cells – imaging, HEK293T, single point, primary screen (AID 602346); conditions: Vif self-association by quenched fluorescence, 24 h, at 7.49 µM, stronger effect = higher value

SMILES | inhibition
O=C(NNCC(O)COc1ccccc1)c1ccccc1 (stereo unspecified) | inconclusive: 25.3%
COCCNC(=O)c1ccc(S(=O)(=O)N2CCCc3ccccc32)cc1 | inactive: -1.37%
OCCOCCN1CCN(C2=Nc3ccccc3Sc3ccccc32)CC1 | inconclusive: 45%
Cc1ccsc1/C=N/NC(=O)c1ccncc1 | inactive: 8.49%
CCOC(=O)N/N=C/c1cn(Cc2ccc(F)cc2)c2ccccc12 | inactive: -9.36%
Cc1ccnc(NS(=O)(=O)c2ccc(NC(=O)CCOc3ccccc3)cc2)n1 | inconclusive: 33%
O=C(CCN1C(=O)/C(=C/c2ccc3c(c2)OCO3)SC1=S)Nc1cccc(C(=O)O)c1 | inactive: -2.11%
COc1cc(NC(=O)CN2CCCCC2)c(C)cc1[N+](=O)[O-] | inconclusive: 28.2%
Cn1cc(C(=O)N/N=C/C2=C(N3CCOCC3)C(=C\c3ccccc3)/CC2)ccc1=O | inconclusive: 22.9%
COC(=O)\C(C(C)=O)=C(/C=C/C=C/N(C)C)N(C)C | active: 61.6%
Cc1cc(-c2nc3ncccc3o2)ccc1N | inactive: 32.3%
CC(=O)Nc1cc2ccccc2oc1=O | inconclusive: 46.8%
CN1C2C=C3C(C#N)=C(N)C(C#N)(C#N)[C@@H](c4cccs4)C3C1CC2 (stereo partly specified) | inconclusive: 48.5%
CC[C@@H]1[C@H]2CCCC(=O)N3CC[C@@H](C[C@@H]1Nc1ccccc1)[C@@H]23 | inactive: -4.05%
CCN(CC)S(=O)(=O)c1cccc(C(=O)NCCc2ccccc2)c1 | inconclusive: 29.3%
Cc1noc(C)c1COC(=O)c1cc(F)c(F)cc1Cl | inconclusive: 30.4%
CCOc1ccc(S(=O)(=O)N2CCc3ccccc3C2)cc1 | inconclusive: 34.5%
O=C(NCc1ccncc1)c1cccc(S(=O)(=O)Nc2ccc(SC(F)F)cc2)c1 | inconclusive: 32.8%
COc1cc(C(=O)NNC(=O)COc2ccccc2Cl)ccc1OCC(=O)N1CCOCC1 | inconclusive: 20.1%
COc1cc(CNC(C)(C)CO)cc(Br)c1OCc1ccccc1 | active: 55.8%
Cc1c(=O)n(OCc2ccccn2)c2ccccc2[n+]1[O-] | inactive: 4.23%
Cc1cccc(NS(=O)(=O)c2cccc3cccnc23)n1 | inactive: -9.48%
CCN1C/C(=C\c2cccc([N+](=O)[O-])c2)C(=O)/C(=C/c2cccc([N+](=O)[O-])c2)C1 | active: 70.1%

Retrieved one by one from above (4):
SMILES | inhibition
COc1cc(C(=O)NNC(=O)COc2ccccc2Cl)ccc1OCC(=O)N1CCOCC1 | inconclusive: 20.1%
CN1C2C=C3C(C#N)=C(N)C(C#N)(C#N)[C@@H](c4cccs4)C3C1CC2 (stereo partly specified) | inconclusive: 48.5%
Cc1cc(-c2nc3ncccc3o2)ccc1N | inactive: 32.3%
CCN1C/C(=C\c2cccc([N+](=O)[O-])c2)C(=O)/C(=C/c2cccc([N+](=O)[O-])c2)C1 | active: 70.1%

Further compounds.

SMILES | inhibition
COc1cccc(CC(=O)OCc2csc(CC(=O)Nc3ccccc3C)n2)c1 | inactive: -1.68%
O=C(Nc1ccc(F)cc1)c1cc(-c2ccccn2)nc2c(Cl)cccc12 | inconclusive: 37.8%
O=C(COC(=O)c1ccc(F)cc1F)NC(=O)Nc1ccc2c(c1)OCCO2 | inconclusive: 45%
CCN(CC(=O)Nc1ccc(OC)cc1)C(=O)CSCc1c(C)noc1C | inconclusive: 48.6%
Cc1cccc(NC(=S)N(CCN2CCOCC2)Cc2ccccc2F)c1 | inactive: -0.0925%
CSc1nsc(/C=C/Nc2ccc(F)cc2F)c1C#N | inconclusive: 24.3%
CCOC(=O)c1ccc(N2CN(CC)CNC2=S)cc1 | inconclusive: 35.5%
COc1c2ccoc2nc2c(OC)c(OCC(OC(C)=O)C(C)(C)O)ccc12 (stereo unspecified) | inconclusive: 24.9%
CCOC(=O)C1(Cc2cccc(OC)c2)CCN(CCO)CC1 | active: 66.3%
O=c1c(Br)ccc(Br)cc1Br | active: 168%
CCOC(=O)N1CCN(C(=O)CSc2ccc3nnc(-c4ccncc4)n3n2)CC1 | inconclusive: 33.6%
CCCNc1nc(C)nc2c1cnn2CCc1ccccc1 | inconclusive: 47%
Fc1ccc(-n2nnc(-c3nccs3)n2)cc1 | inactive: -6.21%
CN1C(=O)N(CC(=O)c2ccc3c(c2)OCO3)C(=O)C12CCCCC2 | inconclusive: 28.1%
CCC(=O)Nc1ccc(S(=O)(=O)Nc2cccnc2)cc1 | inconclusive: 26.6%
CCNc1c(NS(=O)(=O)c2ccc(F)c(Cl)c2)c(=O)oc2ccccc12 | inconclusive: 38.7%
O=C(O)c1ccc(Nc2nc(-c3cccnc3)cs2)cc1O | inactive: 2.71%
CCOc1ccc(CCN2C(=S)N([C@@H](Cc3ccc(O)cc3)CN3CCC[C@@H]3CN3C(=S)NC[C@@H]3CC(C)C)C[C@@H]2Cc2ccc(O)cc2)cc1 | inconclusive: 21%
O=C(CCCOc1ccc(Br)cc1)NNC(=O)c1ccncc1 | active: 67.4%
COc1cc(NC(=O)NCc2ccco2)ccc1-c1ccc(NC(=O)NCc2ccco2)cc1OC | active: 90.3%
COc1ccc(C(=O)SC2=NCCS2)cc1OC | inconclusive: 42.5%
COc1ccccc1C(C)NC(=O)Cc1ccsc1 (stereo unspecified) | active: 98.8%
COc1cc(C2=NOC(C(=O)NCc3cccs3)C2)cc(OC)c1OC (stereo unspecified) | inconclusive: 46.3%

An excerpt from above in order of heavy-atom count, ascending.
SMILES | inhibition
CCOC(=O)c1ccc(N2CN(CC)CNC2=S)cc1 | inconclusive: 35.5%
COc1cc(C2=NOC(C(=O)NCc3cccs3)C2)cc(OC)c1OC (stereo unspecified) | inconclusive: 46.3%
CCOc1ccc(CCN2C(=S)N([C@@H](Cc3ccc(O)cc3)CN3CCC[C@@H]3CN3C(=S)NC[C@@H]3CC(C)C)C[C@@H]2Cc2ccc(O)cc2)cc1 | inconclusive: 21%

Further results follow.

SMILES | inhibition
CC(C)(C)Nc1nc(-c2ccc3c(c2)CCN3C(=O)C2CC2)cs1 | inconclusive: 30.7%
COc1cccc(/C=N/NC(=O)c2cccc3ccccc23)c1 | inconclusive: 35%
O=C1C=CC(=O)c2c(O)c(N3CCN(CCO)CC3)c(Cl)c(O)c21 | active: 127%
COc1cccc(C(c2sc3ncnn3c2O)N2CCc3ccccc3C2)c1 (stereo unspecified) | inactive: -1.29%
Cc1cc(C)c(OCC(=O)Nc2ccc3c(c2)OCO3)cc1C | active: 67.5%
CCNC(=S)N(CCN(CC)CC)Cc1cc2cc3c(cc2[nH]c1=O)OCCO3 | inconclusive: 47.2%
Nc1ccc(-c2c3ccc(=O)cc-3oc3cc(O)ccc23)c(C(=O)O)c1 | active: 72.8%
O=C(OCC(=O)N1CCc2ccccc21)c1n[nH]c(=O)c2ccccc12 | inconclusive: 41.4%
CCN(CC)C(=O)COc1ccc(CC(=O)O)cc1OC | inconclusive: 31.8%
COCCN1C[C@@H](CO)O[C@@H](n2cnc3c(N4CCN(c5ccccc5)CC4)ncnc32)C1 | inconclusive: 28.3%
O=C(O)CSCC(=O)N1N=C2/C(=C/c3ccccc3)CCCC2C1c1ccccc1 (stereo unspecified) | inactive: 3.36%
Cc1cc(Cl)ccc1Oc1ccc(C(N)=O)cc1[N+](=O)[O-] | inconclusive: 35%
CN(C)CC/C=C1/c2ccccc2CS(=O)(=O)c2ccccc21 | active: 84.8%
Cc1cccc(N(C(=O)c2ccc(CN3CCOCC3)o2)C(C(=O)NC(C)(C)C)c2ccc(F)cc2)c1 (stereo unspecified) | inactive: 1.54%
Cc1cccc(N2CCN(C(=O)c3ccc4c(c3)NC(=O)C(CSCc3cccc(F)c3)N4)CC2C)c1 (stereo unspecified) | active: 60.8%
CCOc1cc(N2CCOCC2)c(OCC)cc1NC(=O)CSc1nc(N)cc(=O)[nH]1 | inconclusive: 32.9%
COc1ccccc1OCCNC(=O)c1ccccc1C | inconclusive: 39.3%
O=c1cc2oc3cc(O)c(O)cc3c(-c3ccccc3O)c-2cc1O | inactive: 12.3%
CCOc1ccc2nc(NCCNS(=O)(=O)c3ccccc3)c(C#N)cc2c1 | inconclusive: 39.2%
COc1ccc(CN2C(=O)C(C)Nc3ncnc(N4CCOCC4)c32)cc1 (stereo unspecified) | inconclusive: 49.7%
CC(C)(C)c1ccc(C(=O)NC(=S)N2CCCC2)cc1 | inconclusive: 33.7%
CN1CCN(CCCNCc2cn(CCC#N)c3ccccc23)CC1 | inactive: -1.88%
COc1ccccc1CNC(=O)COC(=O)c1ccc(Cl)nc1 | inconclusive: 37.3%

SMILES | inhibition
COc1ccc(OC)c(NC(=O)c2cc3ccccc3cc2OC)c1 | active: 50.5%
CCn1c(NC(=O)c2ccc(F)cc2)c2ccccc2nc1=O | inconclusive: 41%
COc1ccc(/C=C/C(=O)Oc2cccc(/C=N/NC(=O)COc3c(C)cccc3C)c2)cc1 | inactive: -10.2%
Cc1ccc(C(=O)NCCCNC(=O)c2ccccc2C)cn1 | inconclusive: 23.9%
O=C(NCc1ccccc1)C(c1cccnc1)N(C(=O)c1ccccn1)c1ccccc1F (stereo unspecified) | inconclusive: 26.4%
O=S(=O)(Nc1c(F)cccc1F)c1ccc2c(c1)OCCO2 | inconclusive: 33%
N#C/C(=C\c1cn(CCOc2ccccc2F)c2ccccc12)C(=O)NCc1cccs1 | inconclusive: 49.1%
CCN1CC=C2C(C#N)=C(N)C(C#N)(C#N)C(CCc3ccccc3)C2C1 (stereo unspecified) | active: 79.3%
CC(=O)c1cccc(-c2ccnc3c2CC(C(=O)NCc2ccco2)O3)c1 (stereo unspecified) | active: 54.2%
Cc1noc(C)c1C(=O)Nc1nnc(CC(C)C)s1 | inactive: -3.02%
CCC1=NN2C(=N)/C(=C\c3ccc(OCCOc4ccccc4OC)cc3)C(=O)N=C2S1 | inactive: -4.98%
Nc1nc(C2CCOCC2)cs1 | inconclusive: 33%
COc1ccc(NC(=O)N2CCCC(C(=O)NCCc3ccccc3)C2)cc1 (stereo unspecified) | inactive: -1.27%
COc1ccccc1-n1c(CNC(=O)c2ccc(S(=O)(=O)N3CCOCC3)cc2)n[nH]c1=S | inconclusive: 26.6%
O=C(NCc1cc(C(F)(F)F)ccc1Cl)c1cccc2c1C(=O)c1ccc(N3CCOCC3)cc1S2(=O)=O | inconclusive: 49.3%
CC(Oc1ccc(S(=O)(=O)N2CCCC2)cc1[N+](=O)[O-])C(=O)NC1(C#N)CCCCC1 (stereo unspecified) | inconclusive: 26.7%
COc1ccc(-c2cc(C(=O)N3CCN(c4ccccc4)CC3)c3ccccc3n2)cc1 | inactive: 16.6%
COc1cccc(OC)c1C(=O)Nc1nc(-c2ccccc2)cs1 | inactive: -1.53%
Clc1ccc(CN2CCCCCC2)cc1 | inconclusive: 19.1%
O=C(Nc1nnc2n1CCS2)c1ccc(Br)o1 | inactive: 11.5%
CCOc1ccc(N2CC(C(=O)N3CCCC3)CC2=O)cc1 (stereo unspecified) | inconclusive: 29.6%
Cc1ccc(NC(=O)c2ccc(NCc3ccco3)c([N+](=O)[O-])c2)cc1Cl | active: 82.2%
